Results published in PubChem BioAssay AID1671190 (National Center for Advancing Translational Sciences (NCATS), 2021).
Screen size: about 580,000 compounds; about 6,100 (1.1%) were called active. Inconclusive results, whose numbers are uncertain, are shown with a selection of clear calls. Calls come from the whole dose curve; as a rule, active = well fitted inhibition curve with a large enough effect; inconclusive = small, poorly fitted or top-dose-only effect, or another doubt; inactive = no such curve, though single readings can be large or run the other way. Where the call is inconclusive, the potency comes from a doubtful curve fit.

Chains of the proteins cited; added tags and fusions are not shown. Lines headed by an entry give the natural chain unless they say otherwise; changes in a name come on top.
UniProt P18054: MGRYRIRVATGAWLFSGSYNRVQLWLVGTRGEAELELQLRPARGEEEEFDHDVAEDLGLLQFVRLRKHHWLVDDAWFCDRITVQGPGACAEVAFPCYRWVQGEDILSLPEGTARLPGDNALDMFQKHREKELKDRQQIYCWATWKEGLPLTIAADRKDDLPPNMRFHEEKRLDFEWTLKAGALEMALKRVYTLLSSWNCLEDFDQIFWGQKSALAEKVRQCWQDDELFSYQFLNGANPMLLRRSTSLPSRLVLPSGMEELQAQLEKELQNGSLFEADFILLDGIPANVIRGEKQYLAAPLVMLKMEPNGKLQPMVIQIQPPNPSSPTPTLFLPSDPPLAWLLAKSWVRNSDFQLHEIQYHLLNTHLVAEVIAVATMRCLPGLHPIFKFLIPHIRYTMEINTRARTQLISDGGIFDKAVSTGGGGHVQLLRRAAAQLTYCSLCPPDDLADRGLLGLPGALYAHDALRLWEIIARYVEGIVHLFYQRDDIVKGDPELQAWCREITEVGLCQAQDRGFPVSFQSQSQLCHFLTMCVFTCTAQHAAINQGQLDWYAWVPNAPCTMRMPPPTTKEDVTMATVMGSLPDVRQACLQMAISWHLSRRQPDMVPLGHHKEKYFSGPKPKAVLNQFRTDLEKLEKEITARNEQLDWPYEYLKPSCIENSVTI

target: Polyunsaturated fatty acid lipoxygenase ALOX12 (Homo sapiens) (UniProt P18054); assay: Primary qHTS assay for inhibitors of human arachidonate 12S-lipoxygenase (ALOX12): Round 2; details: purified 12hLO, xylenol orange hydroperoxide absorbance; activity change, negative = inhibition: at 108 µM (top of the series) unless noted
In short: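 Purified human 12hLO at 150 nM in 25 mM Hepes, 0.01% Triton X-100, pH 7.0, preincubated 15 min at room temperature with compound. Reaction started with 40 uM arachidonic acid, 30 min at room temperature. Hydroperoxide measured by Fe-xylenol orange, 573/405 nm absorbance ratio.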
% is set by controls: 0 for no effect and ±100 for the full control effect; potency is the fitted concentration of half-maximal effect.

Structure (SMILES) | activity change, negative = inhibition | Potency
C#CCNC(=O)C1CCc2nnc(CNC(=O)c3ccc(Cl)cc3Cl)n21 (stereo unspecified) | inactive: 12.1% [at 6.33 µM] | –
COC(=O)\C(C(C)=O)=C(/C=C/C=C/N(C)C)N(C)C | – | inconclusive: 31.6 µM [inhibitor, single point]
COc1cc(OC)cc(C(=O)NCC(=O)OCc2csc(-c3ccccc3)n2)c1 | – | inconclusive: 44.7 µM [inhibitor, partial curve, poor fit]
COc1ccc(/C=C2\COc3ccccc3C2=O)cc1OC | inactive: -30.3% | –
O=C(O)CNC(=O)c1ccc(NS(=O)(=O)c2cccc(Cl)c2)cc1 | – | inconclusive: 3.16 µM [inhibitor, full curve, poor fit]
O=S(=O)(NNC(=S)NCC1CCCO1)c1cc(Cl)ccc1Cl (stereo unspecified) | – | inconclusive: 3.16 µM [inhibitor, full curve, poor fit]
CCOc1ccc(CNC(=O)c2ccc(NC(=O)c3nnc(C)s3)cc2)cc1 | – | inconclusive: 50.1 µM [inhibitor, partial curve]
CCC1=NN(C(=O)Cc2ccc([N+](=O)[O-])cc2)C(O)(C(C)(C)C)C1 (stereo unspecified) | inactive: 0.698% | –
CC(=O)OCC(=O)Nc1ccc(SC(F)F)cc1 | inactive: -7.45% | –
CC(C)NC(=O)N1CC[C@@]2(CCCN(S(C)(=O)=O)C2)C1 | – | inconclusive: 31.6 µM [inhibitor, single point]
O=C(O)CCC(NC(=O)Cc1ccc2ccccc2c1)C(=O)O (stereo unspecified) | – | inconclusive: 25.1 µM [inhibitor, full curve, poor fit]
COC(=O)C1=C(C)NC(C)=C(C(=O)OC)C1c1ccc(N(C)C)cc1 | inactive: -23.5% | –
CC(C)NC(=O)N1Cc2cc(C(=O)NCC(F)(F)F)nc(-c3cccc(-c4cc5ccccc5o4)c3)c2[C@@H]1CCO | – | inconclusive: 50.1 µM [inhibitor, partial curve, poor fit]
Cc1ccccc1CN1CCc2nc(N3CCN(c4ncccn4)CC3)ncc2C1 | – | inconclusive: 50.1 µM [inhibitor, partial curve, poor fit]
O=C(NCc1n[nH]c(=O)c2ccccc12)c1cc(Cl)ccc1Cl | inactive: -38.1% | –
Cc1ccc(CC(=O)N2CCC(n3cc(-c4nc(C)no4)nn3)CC2)cc1 | – | inconclusive: 31.6 µM [inhibitor, partial curve, poor fit]
COc1cc(C#N)ccc1OCc1cc(C#N)ccc1F | – | inconclusive: 44.7 µM [inhibitor, partial curve, poor fit]
CC(=O)N1CCC[C@@]2(CCN(c3ccncc3)C2)C1 | inactive: 3.86% [at 57.4 µM] | –
Cc1nc([C@@H]2CN(S(=O)(=O)C(C)C)C[C@H]2C(N)=O)n[nH]1 | – | active: 50.1 µM
C=CCNC(=S)/N=c1/ccccn1CCC | inactive: 0% | –
CCOC(=O)C1=C(C)NC2=C(C(=O)CCC2)C1c1cccs1 (stereo unspecified) | inactive: -3.63% | –
O=C(CC1CCCCC1)N1CCC(n2cc(-c3nc(-c4ccccc4)no3)nn2)CC1 | – | inconclusive: 50.1 µM [inhibitor, partial curve]

Structure (SMILES) | activity change, negative = inhibition | Potency
COc1ccc(CCCc2nnc(SCC(=O)Nc3cccc(C)c3)o2)cc1C | – | inconclusive: 44.7 µM [inhibitor, partial curve, poor fit]
CCOc1ccccc1C(=O)Oc1c(S(=O)(=O)c2ccc(C)cc2)c(C)nn1-c1ccccc1 | – | inconclusive: 14.1 µM [inhibitor, full curve]
CCCCN(C)CCCNC(=O)Cn1ncc2c3ccccc3n(Cc3cccc(Cl)c3)c2c1=O | – | inconclusive: 8.91 µM [inhibitor, full curve, poor fit]
CCCN(CCC)C(=O)CSc1nc2c(sc(=S)n2-c2ccc(OCC)cc2)c(=O)[nH]1 | – | inconclusive: 0.316 µM [inhibitor, full curve, poor fit]
COC(=O)c1c[nH]n2c(=O)c(Cc3ccc(F)cc3Cl)c(C)nc12 | inactive: 0.609% | –
COC(=O)[C@@]1(Cc2ccc(OC)cc2)[C@H]2c3cc(C(=O)N4CCCC4)n(Cc4c(CO)[nH]cc(C)c4=O)c3C[C@H]2CN1C(=O)c1ccccc1 | inactive: -1.78% | –
O=C(NC1CCN(C(=S)NCCc2ccccc2)CC1)C1CC1 | inactive: 5.77% | –
O=C(/C=C/c1ccc(Cl)cc1)c1ccc(OC(F)F)cc1OC(F)F | inactive: -11.3% | –
CNc1c(NC(=O)Nc2ccc(Cl)cc2)c(=O)oc2ccccc12 | – | inconclusive: 56.2 µM [inhibitor, partial curve, poor fit]
OC(CN1CCOCC1)CN1CCOCC1 | – | inconclusive: 28.2 µM [inhibitor, single point]
C=CCc1c(C)[nH]c2c(OC)cccc2c1=S | – | inconclusive: 70.8 µM [inhibitor, partial curve, poor fit]
O=C1C(NS(=O)(=O)c2cccs2)=C(N2CCN(c3cccc(C(F)(F)F)c3)CC2)C(=O)c2ccccc21 | – | inconclusive: 50.1 µM [inhibitor, partial curve, poor fit]
COc1cccc2cc(C(=O)NCc3ccccc3Br)c(=O)oc12 | – | inconclusive: 5.01 µM [inhibitor, full curve, poor fit]
Cn1cccc1/C=C1\Cc2ccccc2C1=O | inactive: 0% | –
CCCN(CCO)CC(=O)NC(CC)CC | – | inconclusive: 11.2 µM [inhibitor, full curve]
COc1cc(C(c2nnnn2C(C)(C)C)N2CCN(c3nc4ccccc4s3)CC2)ccc1O (stereo unspecified) | inactive: 0% | –
CCN(CC)c1cc(C)c2cc(NC(=O)/C=C/c3ccccc3Cl)ccc2n1 | – | inconclusive: 4.47 µM [inhibitor, full curve, poor fit]
CCNC(=O)NC[C@@H]1C=C(C)[C@H](CC(=O)N2CCN(C(C)=O)CC2)C[C@H]1C(C)C | inactive: 10.5% [at 176 µM] | –
Cc1ccc(C)c(-n2c(-c3ccncc3)n[nH]c2=S)c1 | – | inconclusive: 44.7 µM [inhibitor, partial curve, poor fit]
O=C(O)c1ccc([N+](=O)[O-])c2c1C(=O)c1ccccc1C2=O | – | inconclusive: 28.2 µM [inhibitor, single point]
Cc1[nH]c2ccccc2c1N=Nc1ccc(F)cc1 | – | inconclusive: 79.4 µM [inhibitor, partial curve, poor fit]
COc1ccc(NC(=O)c2ccc(Cl)nc2)cc1S(=O)(=O)N1CCOCC1 | inactive: 419% | –

Structure (SMILES) | activity change, negative = inhibition | Potency
Cc1cc(S(=O)(=O)N2C[C@@H](F)C[C@H]2C(=O)N2CCc3ccccc3C2)ccc1F | – | inconclusive: 1 µM [inhibitor, full curve, poor fit]
COc1ccc(NC(=O)CSc2nc3c(cc2C#N)CN(C)CC3)cc1 | – | inconclusive: 12.6 µM [inhibitor, partial curve, poor fit]
O=C(CCSCc1cccc(Cl)c1)NCc1ccccc1Cl | – | inconclusive: 100 µM [inhibitor, partial curve, poor fit]
CCN1CCN(c2oc(/C=C/c3cccs3)nc2C#N)CC1 | – | inconclusive: 63.1 µM [inhibitor, partial curve, poor fit]
Fc1ccc(CNC(=S)NCc2ccccc2Br)cc1 | – | inconclusive: 44.7 µM [inhibitor, partial curve, poor fit]
CC(C)N1CCC(N2CCN(Cc3cn(C(C)C)c4ccccc34)CC2CCO)CC1 (stereo unspecified) | inactive: 8.27% | –
Cc1cc(C)cc(C(=O)N2CCN(CCc3ccccc3)CC2)c1 | inactive: 14.3% | –
O=C(c1ccc(C2CCCNC2)cc1)N1CCN(c2ccncc2)CC1 (stereo unspecified) | – | inconclusive: 12.6 µM [inhibitor, full curve]
COc1ccc(CNC(=O)C[C@H]2C[C@H](C(=O)N3CCOCC3)[C@@]3(CCC4CCCC4)c4[nH]c5cc(CCC(=O)N(C)C)ccc5c4CCN3C2=O)cc1OC | – | inconclusive: 89.1 µM [inhibitor, partial curve, poor fit]
C(=C\c1ccccc1)/CN1CCN(C(c2cc3ccccc3o2)c2nnnn2-c2ccc3c(c2)OCCO3)CC1 (stereo unspecified) | – | inconclusive: 5.01 µM [inhibitor, full curve]
Cc1cc(N2CCN(c3ccccc3)CC2)nc(-n2nc(C)cc2C)n1 | inactive: 17.1% | –
COc1ccc(NC(=S)N/C(=N/S(=O)(=O)c2ccc(C)cc2)c2ccccc2)cc1 | – | inconclusive: 31.6 µM [inhibitor, partial curve, poor fit]
O=C(COc1ccc(Br)cc1)NNC(=S)NCc1ccccc1 | – | inconclusive: 70.8 µM [inhibitor, partial curve, poor fit]
Cc1nn(C)c(C)c1CNCc1cccnc1N1CCOCC1 | – | inconclusive: 50.1 µM [inhibitor, partial curve, poor fit]
CCOC(=O)c1sc(NC(=O)C2CSC3(C)CCC(=O)N23)nc1C (stereo unspecified) | – | inconclusive: 112 µM [inhibitor, single point]
NNC(=O)Cn1nc(-c2ccccc2)c2ccccc2c1=O | – | inconclusive: 35.5 µM [inhibitor, single point]
CC(Oc1ccc(F)cc1)C(=O)Nc1ccccc1C(=O)N1CCCCC1 (stereo unspecified) | inactive: -4.98% | –
Cc1ccc(/C(O)=C2\C(=O)C(=O)N(CCCO)C2c2ccc(F)cc2)cc1 (stereo unspecified) | inactive: -14.4% | –
COC(=O)C1CN(Cc2ccc(Cl)cc2)CCS(=O)(=O)N1Cc1cn(Cc2ccc(F)cc2)nn1 (stereo unspecified) | – | inconclusive: 44.7 µM [inhibitor, partial curve, poor fit]
O=C(O)CCN1C(=O)/C(=C\c2cccc(Oc3ccccc3)c2)SC1=S | – | inconclusive: 44.7 µM [inhibitor, partial curve, poor fit]
N#CC1=C(N)SC(N)=C(C#N)C1c1cccc(Oc2ccccc2)c1 | – | active: 14.1 µM
Fc1cccc(-c2cc3c(Nc4ccc5c(c4)OCCO5)nccc3[nH]2)c1 | – | inconclusive: 44.7 µM [inhibitor, partial curve, poor fit]

Laid out differently: entries from further up
Structure (SMILES)	activity change, negative = inhibition	Potency
Fc1ccc(CNC(=S)NCc2ccccc2Br)cc1	–	inconclusive: 44.7 µM [inhibitor, partial curve, poor fit]
CC(C)N1CCC(N2CCN(Cc3cn(C(C)C)c4ccccc34)CC2CCO)CC1 (stereo unspecified)	inactive: 8.27%	–
O=C(c1ccc(C2CCCNC2)cc1)N1CCN(c2ccncc2)CC1 (stereo unspecified)	–	inconclusive: 12.6 µM [inhibitor, full curve]
COc1ccc(CNC(=O)C[C@H]2C[C@H](C(=O)N3CCOCC3)[C@@]3(CCC4CCCC4)c4[nH]c5cc(CCC(=O)N(C)C)ccc5c4CCN3C2=O)cc1OC	–	inconclusive: 89.1 µM [inhibitor, partial curve, poor fit]
COc1ccc(NC(=S)N/C(=N/S(=O)(=O)c2ccc(C)cc2)c2ccccc2)cc1	–	inconclusive: 31.6 µM [inhibitor, partial curve, poor fit]
